Test results taken from the supplement of paper PMC12024529.
Where a name gives a salt, the structure may show the parent alone. The list shows a part of the results. Plates or batches differ in their baseline, so values are only roughly comparable.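 Wild-type or misfolding-prone missense mutant B-domain-deleted factor VIII, fused to Gaussia luciferase, is stably expressed in HEK293 lines. Each score is (mean triplicate-well luminescence minus DMSO mean) divided by DMSO standard deviation. Hits score at least 2; lower scores could stem from decreased secretion or poorer cell viability.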

test system: HEK293 p.N1941S BDD-FVIII-Gluc; experiment: secreted FVIII-Gluc luciferase Z-score vs DMSO control; higher = more FVIII-Gluc secretion; details: 5 µM; 24 h

Secreted FVIII-Gluc luciferase Z-score, inactive:
O=C(O)COCCN1CCN(C(c2ccccc2)c2ccc(Cl)cc2)CC1 (stereo not given) [Cetirizine Dihydrochloride] -0.00177, CNC(=O)c1ccccc1Sc1ccc2c(/C=C/c3ccccn3)n[nH]c2c1 [Axitinib] -6.09, COc1ccc2c(c1OC)C(=O)O[C@@H]2[C@H]1c2c(cc3c(c2OC)OCO3)CCN1C [Noscapine HCl] -1.53, CC(C(=O)O)c1ccc2c(c1)CC(=O)c1ccccc1S2 (stereo not given) [Zaltoprofen] -0.275, Clc1ccc(COC(Cn2ccnc2)c2ccc(Cl)cc2Cl)c(Cl)c1 (stereo not given) [Miconazole nitrate] -3.7, CC(NC(=O)Cc1cc(F)cc(F)c1)C(=O)NC(C(=O)OC(C)(C)C)c1ccccc1 (stereo not given) -2.01, N#CC1(c2ccc(NC(=O)c3cccnc3NCc3ccncc3)cc2)CCCC1 [Apatinib (YN968D1)] -1.08, C[C@@H]1CCN(C(=O)CC#N)C[C@@H]1N(C)c1ncnc2[nH]ccc12 1.67, CC(=O)[C@H]1CC[C@H]2[C@@H]3C=CC4=CC(=O)CC[C@@]4(C)[C@@H]3CC[C@]12C [Dydrogesterone] 0.529, COc1c2ccoc2cc2oc(=O)ccc12 [Bergapten] -0.152
